Where two headings read alike, the source gives them in different places. Results are given in words; binding and its absence hold for the method and conditions named. Binding seen in cells or lysates may run through a third protein. Here binding means that the protein was enriched with, or labelled near, the bait; the list need not be complete. For some assays here: No binding means not detected with the bait.

Amino acid sequences for entries named in this document (tags omitted). A change or cut given only in a name is not applied to a line headed by its entry.
UniProt Q9JI44: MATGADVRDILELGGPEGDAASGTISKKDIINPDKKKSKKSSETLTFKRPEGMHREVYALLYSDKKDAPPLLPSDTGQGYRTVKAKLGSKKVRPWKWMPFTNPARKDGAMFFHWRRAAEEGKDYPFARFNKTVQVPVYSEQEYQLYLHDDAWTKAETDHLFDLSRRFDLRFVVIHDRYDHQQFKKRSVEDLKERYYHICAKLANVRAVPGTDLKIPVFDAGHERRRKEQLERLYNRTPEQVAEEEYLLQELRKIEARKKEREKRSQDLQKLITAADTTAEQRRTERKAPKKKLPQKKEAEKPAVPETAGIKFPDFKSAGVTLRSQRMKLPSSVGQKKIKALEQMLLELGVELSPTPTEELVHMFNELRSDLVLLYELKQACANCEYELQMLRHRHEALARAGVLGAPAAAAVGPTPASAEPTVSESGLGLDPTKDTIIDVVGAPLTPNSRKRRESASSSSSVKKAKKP
UniProt Q8C9X6: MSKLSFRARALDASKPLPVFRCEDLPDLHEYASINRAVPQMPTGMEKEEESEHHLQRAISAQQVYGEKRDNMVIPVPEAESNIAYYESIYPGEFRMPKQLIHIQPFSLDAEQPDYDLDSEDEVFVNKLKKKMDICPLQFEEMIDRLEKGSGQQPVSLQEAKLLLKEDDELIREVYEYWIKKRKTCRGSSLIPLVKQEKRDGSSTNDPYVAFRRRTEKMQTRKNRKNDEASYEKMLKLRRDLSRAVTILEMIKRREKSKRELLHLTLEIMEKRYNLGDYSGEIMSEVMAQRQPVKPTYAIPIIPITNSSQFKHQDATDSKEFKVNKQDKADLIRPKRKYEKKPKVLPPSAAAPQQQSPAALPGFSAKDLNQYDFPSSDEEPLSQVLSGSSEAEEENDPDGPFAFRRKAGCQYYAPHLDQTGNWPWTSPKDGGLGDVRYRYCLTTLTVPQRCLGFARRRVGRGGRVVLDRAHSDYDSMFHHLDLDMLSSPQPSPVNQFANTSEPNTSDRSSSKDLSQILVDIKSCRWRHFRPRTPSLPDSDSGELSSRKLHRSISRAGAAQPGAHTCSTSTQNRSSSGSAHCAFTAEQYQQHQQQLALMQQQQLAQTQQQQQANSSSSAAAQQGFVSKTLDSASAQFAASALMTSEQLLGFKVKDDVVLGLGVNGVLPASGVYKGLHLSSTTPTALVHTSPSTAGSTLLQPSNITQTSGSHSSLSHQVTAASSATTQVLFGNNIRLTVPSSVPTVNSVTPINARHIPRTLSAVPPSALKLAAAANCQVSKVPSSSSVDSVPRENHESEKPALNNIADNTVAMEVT
UniProt Q8C0I4: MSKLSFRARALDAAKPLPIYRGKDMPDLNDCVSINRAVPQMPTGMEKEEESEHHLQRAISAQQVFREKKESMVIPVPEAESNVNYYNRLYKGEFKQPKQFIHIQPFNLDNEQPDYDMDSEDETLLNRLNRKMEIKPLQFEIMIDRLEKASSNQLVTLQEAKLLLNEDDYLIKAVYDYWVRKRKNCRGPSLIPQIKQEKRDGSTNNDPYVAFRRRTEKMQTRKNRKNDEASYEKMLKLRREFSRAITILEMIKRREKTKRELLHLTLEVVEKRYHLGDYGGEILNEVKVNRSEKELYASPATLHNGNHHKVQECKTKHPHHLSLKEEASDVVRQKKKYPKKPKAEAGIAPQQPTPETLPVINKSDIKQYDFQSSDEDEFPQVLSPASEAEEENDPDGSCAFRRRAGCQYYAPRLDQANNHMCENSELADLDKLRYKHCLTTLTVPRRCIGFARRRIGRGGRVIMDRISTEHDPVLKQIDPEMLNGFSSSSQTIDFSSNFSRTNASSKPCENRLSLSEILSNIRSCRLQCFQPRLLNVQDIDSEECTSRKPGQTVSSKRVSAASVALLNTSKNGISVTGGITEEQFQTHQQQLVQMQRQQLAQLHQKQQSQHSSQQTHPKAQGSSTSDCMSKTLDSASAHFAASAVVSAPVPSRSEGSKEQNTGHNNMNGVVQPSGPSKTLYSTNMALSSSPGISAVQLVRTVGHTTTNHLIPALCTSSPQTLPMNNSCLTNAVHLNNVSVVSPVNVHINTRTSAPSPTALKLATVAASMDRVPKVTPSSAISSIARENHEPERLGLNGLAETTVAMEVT
UniProt O35144: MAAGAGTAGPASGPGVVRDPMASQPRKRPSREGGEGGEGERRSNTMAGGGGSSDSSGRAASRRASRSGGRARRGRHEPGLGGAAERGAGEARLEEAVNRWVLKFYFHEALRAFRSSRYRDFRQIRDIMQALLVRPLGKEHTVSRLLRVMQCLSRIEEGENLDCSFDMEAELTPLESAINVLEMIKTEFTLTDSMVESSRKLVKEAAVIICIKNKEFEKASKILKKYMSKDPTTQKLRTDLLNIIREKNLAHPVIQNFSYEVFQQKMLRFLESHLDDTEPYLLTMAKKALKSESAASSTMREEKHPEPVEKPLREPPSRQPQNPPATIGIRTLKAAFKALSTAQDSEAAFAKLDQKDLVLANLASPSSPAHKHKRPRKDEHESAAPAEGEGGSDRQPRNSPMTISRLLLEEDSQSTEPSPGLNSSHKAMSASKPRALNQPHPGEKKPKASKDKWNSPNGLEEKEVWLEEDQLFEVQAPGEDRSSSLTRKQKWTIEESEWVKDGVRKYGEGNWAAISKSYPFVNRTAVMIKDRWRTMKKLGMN
UniProt Q8CHI8: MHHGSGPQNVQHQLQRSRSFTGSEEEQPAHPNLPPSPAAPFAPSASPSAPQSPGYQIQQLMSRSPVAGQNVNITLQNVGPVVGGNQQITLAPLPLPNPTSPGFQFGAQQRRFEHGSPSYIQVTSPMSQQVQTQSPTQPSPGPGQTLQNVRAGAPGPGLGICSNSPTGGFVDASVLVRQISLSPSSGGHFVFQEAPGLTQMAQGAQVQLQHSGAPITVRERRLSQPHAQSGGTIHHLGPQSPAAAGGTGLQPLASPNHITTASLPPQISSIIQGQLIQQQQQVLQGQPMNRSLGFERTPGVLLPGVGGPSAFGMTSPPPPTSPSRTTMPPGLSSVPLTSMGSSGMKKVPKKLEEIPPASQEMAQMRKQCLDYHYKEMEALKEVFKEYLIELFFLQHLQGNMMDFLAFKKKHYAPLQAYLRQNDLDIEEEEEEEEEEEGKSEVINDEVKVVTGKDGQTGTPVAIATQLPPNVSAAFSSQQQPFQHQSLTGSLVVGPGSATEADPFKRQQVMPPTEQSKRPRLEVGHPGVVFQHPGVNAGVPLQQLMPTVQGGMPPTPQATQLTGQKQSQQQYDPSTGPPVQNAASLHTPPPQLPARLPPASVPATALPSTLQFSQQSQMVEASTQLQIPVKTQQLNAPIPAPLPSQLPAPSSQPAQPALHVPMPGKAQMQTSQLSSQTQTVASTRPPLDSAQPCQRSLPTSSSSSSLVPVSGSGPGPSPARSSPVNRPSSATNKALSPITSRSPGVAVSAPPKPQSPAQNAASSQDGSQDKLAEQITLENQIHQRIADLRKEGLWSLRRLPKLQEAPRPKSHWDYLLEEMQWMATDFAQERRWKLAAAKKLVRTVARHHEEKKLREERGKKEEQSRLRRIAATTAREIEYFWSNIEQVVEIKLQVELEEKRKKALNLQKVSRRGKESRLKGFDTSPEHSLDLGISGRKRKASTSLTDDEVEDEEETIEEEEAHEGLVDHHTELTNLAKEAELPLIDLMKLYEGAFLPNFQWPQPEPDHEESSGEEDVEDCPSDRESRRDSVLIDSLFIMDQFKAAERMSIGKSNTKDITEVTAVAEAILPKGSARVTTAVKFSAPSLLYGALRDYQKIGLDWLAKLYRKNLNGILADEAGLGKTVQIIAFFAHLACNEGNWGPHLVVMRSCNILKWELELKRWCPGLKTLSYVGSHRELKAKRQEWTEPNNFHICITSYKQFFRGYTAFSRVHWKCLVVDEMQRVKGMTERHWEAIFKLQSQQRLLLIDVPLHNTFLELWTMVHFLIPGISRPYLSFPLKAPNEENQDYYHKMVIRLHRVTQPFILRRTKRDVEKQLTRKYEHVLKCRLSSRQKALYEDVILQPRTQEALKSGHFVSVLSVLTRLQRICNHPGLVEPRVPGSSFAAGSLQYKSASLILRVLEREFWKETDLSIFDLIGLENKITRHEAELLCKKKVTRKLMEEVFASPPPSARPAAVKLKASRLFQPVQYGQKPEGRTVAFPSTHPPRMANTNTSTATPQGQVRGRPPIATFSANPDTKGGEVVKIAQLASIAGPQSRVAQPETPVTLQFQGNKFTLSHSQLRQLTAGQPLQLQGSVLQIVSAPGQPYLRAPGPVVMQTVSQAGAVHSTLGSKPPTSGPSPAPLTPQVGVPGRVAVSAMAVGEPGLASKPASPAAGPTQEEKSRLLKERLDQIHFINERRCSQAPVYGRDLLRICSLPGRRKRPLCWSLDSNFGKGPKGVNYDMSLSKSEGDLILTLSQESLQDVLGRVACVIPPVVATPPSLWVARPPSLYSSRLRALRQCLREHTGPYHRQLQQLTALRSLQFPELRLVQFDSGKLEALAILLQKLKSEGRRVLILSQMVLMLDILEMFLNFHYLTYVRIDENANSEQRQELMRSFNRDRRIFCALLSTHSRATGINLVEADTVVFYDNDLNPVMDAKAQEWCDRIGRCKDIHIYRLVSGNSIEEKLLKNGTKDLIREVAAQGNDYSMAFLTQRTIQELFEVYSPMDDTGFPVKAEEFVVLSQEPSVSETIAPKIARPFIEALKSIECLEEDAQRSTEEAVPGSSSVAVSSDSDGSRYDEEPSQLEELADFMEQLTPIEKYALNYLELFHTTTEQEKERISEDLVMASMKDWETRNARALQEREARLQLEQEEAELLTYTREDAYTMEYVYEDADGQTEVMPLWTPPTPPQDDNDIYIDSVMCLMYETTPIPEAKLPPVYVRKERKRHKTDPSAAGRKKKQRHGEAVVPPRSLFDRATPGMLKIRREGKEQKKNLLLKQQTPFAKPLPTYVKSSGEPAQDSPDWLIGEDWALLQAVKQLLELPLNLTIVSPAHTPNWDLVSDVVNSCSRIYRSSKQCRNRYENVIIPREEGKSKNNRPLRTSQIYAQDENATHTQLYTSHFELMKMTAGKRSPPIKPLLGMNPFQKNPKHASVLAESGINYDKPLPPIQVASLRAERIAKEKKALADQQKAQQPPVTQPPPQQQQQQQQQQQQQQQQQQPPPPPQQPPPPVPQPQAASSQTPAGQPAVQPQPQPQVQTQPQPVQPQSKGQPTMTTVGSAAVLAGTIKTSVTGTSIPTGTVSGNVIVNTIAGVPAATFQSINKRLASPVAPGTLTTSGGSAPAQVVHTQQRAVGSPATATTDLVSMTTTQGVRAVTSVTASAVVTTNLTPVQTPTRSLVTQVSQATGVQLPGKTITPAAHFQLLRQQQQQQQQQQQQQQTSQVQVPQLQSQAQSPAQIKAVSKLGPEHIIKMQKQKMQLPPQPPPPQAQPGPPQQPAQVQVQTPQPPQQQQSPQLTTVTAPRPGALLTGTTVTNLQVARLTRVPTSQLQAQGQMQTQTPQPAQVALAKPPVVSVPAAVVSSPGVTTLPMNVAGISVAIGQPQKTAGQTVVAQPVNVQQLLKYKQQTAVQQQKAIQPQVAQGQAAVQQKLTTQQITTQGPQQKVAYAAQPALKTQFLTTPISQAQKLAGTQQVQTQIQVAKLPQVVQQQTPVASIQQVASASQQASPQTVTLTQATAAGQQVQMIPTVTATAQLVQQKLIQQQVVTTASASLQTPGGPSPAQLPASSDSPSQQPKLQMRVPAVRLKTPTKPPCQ

Assay in all cases: proximity labelling
Test [1] deals with T1, BioID-Rap1-I312R (mouse) (UniProt Q91VL8).
T1 sequence: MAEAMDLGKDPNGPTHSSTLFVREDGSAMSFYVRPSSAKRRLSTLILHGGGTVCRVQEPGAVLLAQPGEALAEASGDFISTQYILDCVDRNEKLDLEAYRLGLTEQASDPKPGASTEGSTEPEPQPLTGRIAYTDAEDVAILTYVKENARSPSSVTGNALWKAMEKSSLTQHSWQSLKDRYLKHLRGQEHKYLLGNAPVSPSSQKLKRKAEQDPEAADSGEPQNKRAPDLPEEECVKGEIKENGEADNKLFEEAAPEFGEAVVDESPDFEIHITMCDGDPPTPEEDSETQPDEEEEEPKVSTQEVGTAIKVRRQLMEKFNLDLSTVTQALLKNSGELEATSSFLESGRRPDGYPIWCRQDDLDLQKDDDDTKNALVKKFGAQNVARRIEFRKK

Test [2] deals with T1, BioID-Rap1-I312R (mouse). This is another data set of the same source.
The target of test [3] is BioID-Rap1-WT (mouse) (UniProt Q91VL8).
The target is the same in test [4]. This is another data set of the same source.

For BRD8 (from UniProt Q8R3B7 1-951), the binding result with BioID-Rap1-I312R (mouse) [1] is listed as “binds”. Still for that read-out and setting: for DMAP1 (from UniProt Q9JI44 1-468) the value was “binds”; for EPC1 (from UniProt Q8C9X6 1-813), “binds”.

With EPC2 (from UniProt Q8C0I4 1-808), the binding entry in the test with BioID-Rap1-I312R (mouse) [1] is “binds”.

Regarding TRF2 (from UniProt O35144 1-541), the binding entry with BioID-Rap1-I312R (mouse) [2] is on record as “no binding”; with BioID-Rap1-WT (mouse) [3], “binds”; with BioID-Rap1-I312R (mouse) [1], “no binding”; with BioID-Rap1-WT (mouse) [4], “binds”.

As for p400 (from UniProt Q8CHI8 1-3072), the binding entry with BioID-Rap1-I312R (mouse) [1] was “binds”.

B1: TIN2 (protein, UniProt Q9QXG9 1-341)
chain: MAPPPGVGPASLRFAAAASWLVVRRRRVEHFPKVVEFLQSLRAAAPGLVCYRHHERLCMSLKAKVVVELILQARPWDQVLNALKHHFPAESRTTKEDRKLLEARENFCLLVKHLSEDPPSSLQELEQDYGESFLVAMEKLLFEYLCQLEKALPPVRAQELQDALSWSQPGSFITSSVALHQYGMDMGWTFPESSTSGSGNLIEPMEESPHQQTRPAFHSPLPKAKLGPHQPASLEHPEHLAGHRFNLAPLGKRKSRSHWTSAKACHKERPTVMLLPFRNMGLPAQDLSNPKSREEPGAASAASVGTEPVCTEEAKTPSRPLGKRALEETPPDSPAASRRTV
Take B1: the results for the binding entry in the test with BioID-Rap1-I312R (mouse) [1] and with BioID-Rap1-WT (mouse) [4] were “no binding” and “binds”, respectively.

These data come from doi:10.1101/2021.11.02.467017.
